Results are given in words; binding and its absence hold for the method and conditions named. Binding seen in cells or lysates may run through a third protein. These calls come from enrichment with a bait or labelling near it, and not all partners need be listed.
T1: Hyaluronidase (HYAL)-2 (human (endogenous in human lung fibroblasts AG02262)) (UniProt Q12891)
T1 sequence: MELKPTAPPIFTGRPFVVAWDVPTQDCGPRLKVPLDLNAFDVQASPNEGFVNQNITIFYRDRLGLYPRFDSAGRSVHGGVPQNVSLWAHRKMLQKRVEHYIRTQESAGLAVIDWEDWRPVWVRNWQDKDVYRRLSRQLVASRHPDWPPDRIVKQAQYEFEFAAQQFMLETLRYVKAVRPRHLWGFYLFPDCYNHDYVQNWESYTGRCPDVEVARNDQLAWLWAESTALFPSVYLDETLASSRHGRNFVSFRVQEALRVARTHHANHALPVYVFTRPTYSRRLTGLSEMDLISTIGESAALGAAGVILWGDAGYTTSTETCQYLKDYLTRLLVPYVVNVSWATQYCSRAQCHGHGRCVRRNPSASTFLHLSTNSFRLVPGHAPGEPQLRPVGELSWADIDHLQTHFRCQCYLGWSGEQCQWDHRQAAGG

By UniProt entry, the sequences of proteins in these tests, tags left out.
UniProt Q6S8J3: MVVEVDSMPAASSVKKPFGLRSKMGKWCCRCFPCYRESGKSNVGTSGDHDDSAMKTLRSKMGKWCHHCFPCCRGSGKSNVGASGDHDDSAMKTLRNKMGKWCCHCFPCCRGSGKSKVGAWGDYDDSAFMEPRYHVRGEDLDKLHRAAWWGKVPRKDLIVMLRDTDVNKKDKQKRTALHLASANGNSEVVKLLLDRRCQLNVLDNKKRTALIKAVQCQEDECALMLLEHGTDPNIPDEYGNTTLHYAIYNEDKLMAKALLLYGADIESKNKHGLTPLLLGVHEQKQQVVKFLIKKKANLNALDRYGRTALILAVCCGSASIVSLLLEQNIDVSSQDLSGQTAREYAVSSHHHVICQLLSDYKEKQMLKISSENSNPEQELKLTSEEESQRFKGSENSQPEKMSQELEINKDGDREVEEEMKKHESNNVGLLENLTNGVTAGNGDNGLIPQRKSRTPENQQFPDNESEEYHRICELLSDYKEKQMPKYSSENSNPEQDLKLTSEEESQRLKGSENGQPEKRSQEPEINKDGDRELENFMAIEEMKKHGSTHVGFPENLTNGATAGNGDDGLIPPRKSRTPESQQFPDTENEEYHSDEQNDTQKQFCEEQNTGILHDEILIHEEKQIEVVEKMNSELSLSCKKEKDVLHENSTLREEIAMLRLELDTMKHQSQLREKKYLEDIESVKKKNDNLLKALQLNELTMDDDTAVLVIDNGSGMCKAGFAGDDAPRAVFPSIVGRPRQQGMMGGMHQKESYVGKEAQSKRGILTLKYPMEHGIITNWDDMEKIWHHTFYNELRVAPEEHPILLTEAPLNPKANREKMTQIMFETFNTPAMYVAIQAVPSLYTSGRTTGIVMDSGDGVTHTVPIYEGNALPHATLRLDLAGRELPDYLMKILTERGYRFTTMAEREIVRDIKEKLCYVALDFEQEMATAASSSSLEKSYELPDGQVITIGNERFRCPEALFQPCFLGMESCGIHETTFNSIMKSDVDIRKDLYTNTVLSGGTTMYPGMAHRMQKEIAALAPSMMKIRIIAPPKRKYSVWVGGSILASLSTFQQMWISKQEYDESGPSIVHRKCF
UniProt A5A3E0: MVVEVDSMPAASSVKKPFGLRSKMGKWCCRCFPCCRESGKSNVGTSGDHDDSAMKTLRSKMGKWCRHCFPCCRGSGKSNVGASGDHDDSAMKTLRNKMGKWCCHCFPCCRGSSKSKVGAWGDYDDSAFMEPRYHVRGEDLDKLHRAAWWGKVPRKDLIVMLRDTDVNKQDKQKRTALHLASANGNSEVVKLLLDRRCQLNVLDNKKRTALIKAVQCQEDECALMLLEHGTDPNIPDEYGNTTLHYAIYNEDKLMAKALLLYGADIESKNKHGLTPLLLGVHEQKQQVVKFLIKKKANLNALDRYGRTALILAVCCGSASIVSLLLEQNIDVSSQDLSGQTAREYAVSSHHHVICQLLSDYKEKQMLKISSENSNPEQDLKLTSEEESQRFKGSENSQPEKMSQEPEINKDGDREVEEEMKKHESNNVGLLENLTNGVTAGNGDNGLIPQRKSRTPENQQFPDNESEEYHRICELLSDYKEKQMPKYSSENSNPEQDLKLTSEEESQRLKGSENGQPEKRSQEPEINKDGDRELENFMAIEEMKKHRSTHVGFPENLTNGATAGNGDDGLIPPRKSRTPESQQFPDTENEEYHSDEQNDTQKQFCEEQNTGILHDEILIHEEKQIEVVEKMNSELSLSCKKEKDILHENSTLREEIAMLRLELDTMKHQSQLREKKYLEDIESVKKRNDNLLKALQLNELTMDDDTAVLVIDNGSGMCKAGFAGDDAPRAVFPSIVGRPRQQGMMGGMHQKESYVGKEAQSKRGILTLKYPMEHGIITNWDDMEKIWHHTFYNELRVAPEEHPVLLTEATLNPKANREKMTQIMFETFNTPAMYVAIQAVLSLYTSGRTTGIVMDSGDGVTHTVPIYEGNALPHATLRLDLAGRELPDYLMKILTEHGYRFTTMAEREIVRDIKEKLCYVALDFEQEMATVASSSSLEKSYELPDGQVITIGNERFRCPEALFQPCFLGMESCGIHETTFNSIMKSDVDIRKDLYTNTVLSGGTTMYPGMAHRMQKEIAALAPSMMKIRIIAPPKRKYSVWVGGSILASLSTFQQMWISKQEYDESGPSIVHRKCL
UniProt Q8TDG2: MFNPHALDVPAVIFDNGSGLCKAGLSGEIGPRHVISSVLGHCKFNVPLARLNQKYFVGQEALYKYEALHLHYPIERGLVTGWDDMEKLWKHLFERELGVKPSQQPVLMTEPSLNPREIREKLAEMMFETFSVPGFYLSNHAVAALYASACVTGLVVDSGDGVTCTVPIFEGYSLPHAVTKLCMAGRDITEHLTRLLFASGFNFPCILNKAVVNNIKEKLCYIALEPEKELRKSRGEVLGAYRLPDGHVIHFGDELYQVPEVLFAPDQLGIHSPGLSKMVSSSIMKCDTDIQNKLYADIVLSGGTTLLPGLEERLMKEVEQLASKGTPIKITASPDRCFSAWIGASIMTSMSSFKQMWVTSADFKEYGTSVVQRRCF
UniProt P35579: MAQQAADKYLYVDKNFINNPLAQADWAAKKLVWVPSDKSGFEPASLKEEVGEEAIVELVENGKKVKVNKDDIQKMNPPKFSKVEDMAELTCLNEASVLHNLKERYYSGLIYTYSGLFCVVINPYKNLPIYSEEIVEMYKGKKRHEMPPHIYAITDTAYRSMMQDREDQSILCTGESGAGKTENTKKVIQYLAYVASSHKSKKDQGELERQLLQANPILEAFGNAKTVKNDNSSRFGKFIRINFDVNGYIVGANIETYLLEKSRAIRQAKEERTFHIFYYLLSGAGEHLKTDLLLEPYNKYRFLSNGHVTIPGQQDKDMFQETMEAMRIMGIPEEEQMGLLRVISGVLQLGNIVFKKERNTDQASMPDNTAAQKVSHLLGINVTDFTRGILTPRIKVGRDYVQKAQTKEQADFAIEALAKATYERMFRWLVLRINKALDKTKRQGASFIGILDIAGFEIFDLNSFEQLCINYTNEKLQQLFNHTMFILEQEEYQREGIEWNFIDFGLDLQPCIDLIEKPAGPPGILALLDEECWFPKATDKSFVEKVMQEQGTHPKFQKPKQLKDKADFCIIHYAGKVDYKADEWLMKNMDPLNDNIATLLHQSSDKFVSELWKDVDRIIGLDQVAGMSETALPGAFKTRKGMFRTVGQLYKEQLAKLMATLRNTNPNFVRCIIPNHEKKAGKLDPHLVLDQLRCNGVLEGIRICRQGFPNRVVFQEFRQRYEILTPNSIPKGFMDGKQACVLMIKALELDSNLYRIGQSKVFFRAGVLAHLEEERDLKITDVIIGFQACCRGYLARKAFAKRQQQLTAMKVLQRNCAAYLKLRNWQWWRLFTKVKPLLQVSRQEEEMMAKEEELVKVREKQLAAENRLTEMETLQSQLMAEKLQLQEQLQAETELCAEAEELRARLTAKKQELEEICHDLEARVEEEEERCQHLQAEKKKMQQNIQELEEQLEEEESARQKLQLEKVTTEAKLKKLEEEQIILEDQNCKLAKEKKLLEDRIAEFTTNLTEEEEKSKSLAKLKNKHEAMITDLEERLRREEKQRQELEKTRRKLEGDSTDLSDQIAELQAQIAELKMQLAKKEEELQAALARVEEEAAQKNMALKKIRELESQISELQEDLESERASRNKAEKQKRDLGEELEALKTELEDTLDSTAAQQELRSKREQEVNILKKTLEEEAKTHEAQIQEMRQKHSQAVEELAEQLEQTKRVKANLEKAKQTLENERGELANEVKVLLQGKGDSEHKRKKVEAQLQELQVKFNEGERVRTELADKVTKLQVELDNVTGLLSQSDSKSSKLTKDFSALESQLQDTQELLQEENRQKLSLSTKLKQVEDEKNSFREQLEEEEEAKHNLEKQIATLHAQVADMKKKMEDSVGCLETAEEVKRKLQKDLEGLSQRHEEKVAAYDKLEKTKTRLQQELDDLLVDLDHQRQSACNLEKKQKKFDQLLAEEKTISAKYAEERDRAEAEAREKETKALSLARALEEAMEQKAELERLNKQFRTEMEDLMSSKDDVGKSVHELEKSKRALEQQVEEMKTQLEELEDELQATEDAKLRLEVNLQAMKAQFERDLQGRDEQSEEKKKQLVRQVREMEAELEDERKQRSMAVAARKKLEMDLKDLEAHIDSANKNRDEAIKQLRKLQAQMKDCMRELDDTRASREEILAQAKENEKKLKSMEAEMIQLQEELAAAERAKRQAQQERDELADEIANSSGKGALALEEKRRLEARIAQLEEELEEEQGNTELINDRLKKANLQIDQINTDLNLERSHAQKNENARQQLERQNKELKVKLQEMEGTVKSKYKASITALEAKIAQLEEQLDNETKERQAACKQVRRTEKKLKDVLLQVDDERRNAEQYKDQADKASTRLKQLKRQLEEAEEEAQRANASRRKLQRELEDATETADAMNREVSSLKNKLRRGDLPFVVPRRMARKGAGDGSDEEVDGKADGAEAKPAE

B1: Nebulin-related-LIM/SH3 domain protein 1 (protein, UniProt Q14847 1-261)
chain: MNPNCARCGKIVYPTEKVNCLDKFWHKACFHCETCKMTLNMKNYKGYEKKPYCNAHYPKQSFTMVADTPENLRLKQQSELQSQVRYKEEFEKNKGKGFSVVADTPELQRIKKTQDQISNIKYHEEFEKSRMGPSGGEGMEPERRDSQDGSSYRRPLEQQQPHHIPTSAPVYQQPQQQPVAQSYGGYKEPAAPVSIQRSAPGGGGKRYRAVYDYSAADEDEVSFQDGDTIVNVQQIDDGWMYGTVERTGDTGMLPANYVEAI

target: T1, Hyaluronidase (HYAL)-2 (human (endogenous in human lung fibroblasts AG02262)); assay: affinity purification with mass spectrometry; anti-HYAL2 co-immunoprecipitation eluates of myofibroblasts run on a 7.5% polyacrylamide gel, gel plugs digested with trypsin, MALDI TOF/TOF, Mascot search restricted to human

| Molecule | binding |
| --- | --- |
| POTE ankyrin domain family member E (from UniProt Q6S8J3 1-1075) | binds |
| Vinculin (from UniProt P18206-2) | binds |
| POTE ankyrin domain family member F (from UniProt A5A3E0 1-1075) | binds |
| Actin-related protein T1 (from UniProt Q8TDG2 1-376) | binds |
| Myosin-9 (NMMHCIIA) (from UniProt P35579 1-1960) | binds |
| B1 | binds |

From paper PMC7254050
